# According to PubChem BioAssay AID504834 (National Center for Advancing Translational Sciences (NCATS), 2011):
# In all, about 320,000 compounds went through this assay and about 22,000 (6.9%) were called active. The shares of active, inactive and inconclusive entries below differ from those in the screen. Calls follow the shape of the dose curve; as a rule, active = well fitted inhibition curve with a large enough effect; inconclusive = small, poorly fitted or top-dose-only effect, or another doubt; inactive = no such curve, though single readings can be large or run the other way. Potencies of inconclusive entries are doubtful fits and often do not repeat.
# Assay: Primary qHTS for delayed death inhibitors of the malarial parasite plastid, 96 hour incubation
# Conditions: P. falciparum luciferase reporter growth; series mostly up to 28.7 µM
# Summary of the method: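 Cell-based qHTS: luciferase-tagged P. falciparum in erythrocytes (2% hematocrit, 0.05% parasitemia final) incubated with compounds for 96 hours, 37 C, 5% CO2; luciferase detection reagent then added and luminescence measured.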
# Potency is read from the fitted curve at half-maximal effect.
row,SMILES,Potency
1,CN=c1scc(C)n1/N=C/c1cc(Br)c(O)c(Br)c1,inactive
2,CC(=O)Oc1ccc(/C=N/NC2=NS(=O)(=O)c3ccccc32)cc1,"inconclusive: 18.5 µM [inhibitor, single point]"
3,O=[N+]([O-])c1ccc(N2CCOCC2)cc1SCc1ccco1,inactive
4,C[N+]12CCC(CC1)C(C(O)(c1cccc(Cl)c1)c1cccc(Cl)c1)C2 (stereo not drawn),active: 2.94 µM
5,CC(C)c1ccc(-c2c(C#N)c(N)nc(SCC(=O)N3CCCCCC3)c2C#N)cc1,active: 5.22 µM
6,Cc1nc2c(C)cccn2c(=O)c1NC(=O)c1cccc2ccccc12,inactive
7,CN(C)c1nc(-c2ccccc2)c2cnn(Cc3ccccc3)c2n1,"inconclusive: 18.5 µM [inhibitor, single point]"
8,CO/N=C(/C(=O)N[C@@H]1C(=O)N2C(C(=O)O)=C(CSC(=O)c3ccco3)CSC12)c1csc(N)n1 (stereo partly drawn),active: 13.5 µM
9,CCn1cc(C(=O)NC(C)C23CC4CC(CC(C4)C2)C3)cn1 (stereo not drawn),active: 5.22 µM
10,CC(=O)Nc1ccc(N(C(=O)c2ccco2)C(C(=O)NC2CCCCC2)c2ccccc2)cc1 (stereo not drawn),inactive
11,CC(=O)NN1C(=O)c2ccccc2NC1c1ccoc1 (stereo not drawn),"inconclusive: 9.28 µM [inhibitor, partial curve, poor fit]"
12,O=C(c1ccco1)N1CCN(C(=O)C2CCN(S(=O)(=O)Cc3ccccc3)CC2)CC1,"inconclusive: 8.28 µM [inhibitor, partial curve]"
13,COc1cc(/C=N/NC(=O)c2nonc2N)cc(OC)c1OC,inactive
14,CC(OC(=O)c1ccco1)C(=O)NCc1ccc2c(c1)OCO2 (stereo not drawn),inactive
15,CCOC(=O)C(Cc1ccccc1)C(=O)NCc1ccccc1 (stereo not drawn),active: 3.29 µM
16,Cc1ccccc1NC(=S)/C(=C(\[O-])c1cc(C)n(Cc2ccccc2Cl)c1C)[n+]1ccccc1,"inconclusive: 4.15 µM [inhibitor, partial curve, poor fit]"
17,Cc1ccc(NS(=O)(=O)c2ccc(N3CCN(c4ccc(O)cc4)CC3)c([N+](=O)[O-])c2)c(C)c1,"inconclusive: 14.7 µM [inhibitor, partial curve, poor fit]"
18,COc1ccc(-c2nc(-c3cccc(C(F)(F)F)c3)no2)cc1OC,"inconclusive: 8.28 µM [inhibitor, partial curve, poor fit]"
19,Cc1ccc(-n2nc(C)c3c2NC2=C(C(=O)CC(C)(C)C2)C3c2ccccc2OCC(=O)O)cc1 (stereo not drawn),"inconclusive: 11.7 µM [inhibitor, single point]"
20,O=C1Nc2ccc(Br)cc2C(c2ccccc2)=NC1O (stereo not drawn),inactive
21,Cc1ccc(S(=O)(=O)NCCC(=O)N2CCCCCCC2)cc1C,"inconclusive: 11.7 µM [inhibitor, single point]"
22,Cc1cc(=O)[nH]c(N/N=C2/CCCC/C2=C\c2ccccc2)n1,"inconclusive: 0.0029 µM [inhibitor, full curve, poor fit]"
23,COc1ccc(F)c(CN2CCC(n3nccc3NC(=O)C3CCOC3)CC2)c1 (stereo not drawn),"inconclusive: 10.4 µM [inhibitor, single point]"
24,O=C(NCc1ccco1)/C(=C\c1cccs1)NC(=O)c1cccs1,"inconclusive: 18.5 µM [inhibitor, single point]"
25,CNC(=O)/C(C#N)=C/c1c(N2CCCCCC2)nc2ccccn2c1=O,"inconclusive: 10.4 µM [inhibitor, single point]"

row,SMILES,Potency
1,O=P(OCC1CC1)(c1ccccc1)c1ccccc1,"inconclusive: 10.4 µM [inhibitor, single point]"
2,CCc1nonc1NC(=O)c1oc2ccccc2c1C,"inconclusive: 11.7 µM [inhibitor, single point]"
3,Cc1sc(NC(=O)c2ccco2)nc1-c1ccccc1,inactive
4,CN(CC1COc2ccccc2O1)c1nc(-c2cccnc2)nc2ccccc12 (stereo not drawn),"inconclusive: 10.4 µM [inhibitor, single point]"
5,O=C(/C=C/c1ccccc1[N+](=O)[O-])N1CCN(c2ccccc2F)CC1,inactive
6,COc1cc(OC)cc(C(=O)NCC(=O)OCC(=O)/C=C2/N(C)c3ccccc3C2(C)C)c1,"inconclusive: 0.415 µM [inhibitor, full curve, poor fit]"
7,O=C(NC1CC(=O)N(c2ccc(F)cc2)C1)C(=O)c1c[nH]c2ccccc12 (stereo not drawn),inactive
8,CCCn1c(=S)[nH]c2cc(C(=O)N3CCN(C4CCCCC4)CC3)ccc2c1=O,active: 10.4 µM
9,CCn1c(SCC(=O)N(C)CC(=O)Nc2cccc(OC)c2)nnc1-c1ccco1,inactive
10,COC(=O)Nc1ccc(S(=O)(=O)N2CCCC(C(=O)N3CCCCC3)C2)cc1 (stereo not drawn),"inconclusive: 14.7 µM [inhibitor, partial curve, poor fit]"
11,CS(=O)(=O)N1CCN(c2nc3ccc(Cl)cc3s2)CC1,inactive
12,CCOc1ccc(C(=O)c2cc3ccc(O)cc3oc2=O)cc1,"inconclusive: 2.33 µM [inhibitor, partial curve, poor fit]"
13,CCCCc1ccc(NC(=O)CSC2=NN3CCCC(=O)N=C3S2)cc1,active: 2.08 µM
14,CN1Cc2ccccc2N(CC(=O)NCc2ccccc2)C1=O,"inconclusive: 2.94 µM [inhibitor, full curve, poor fit]"
15,O=C(CNC(=O)c1ccccc1Cl)c1ccccc1,"inconclusive: 9.28 µM [inhibitor, partial curve, poor fit]"
16,O=S(=O)(c1cccc(-c2nnc(SCc3ccc(Cl)cc3)o2)c1)N1CCCCC1,inactive
17,O=S(=O)(Nc1ccc(N=Nc2ccc(O)c3ccccc23)cc1)c1ccccc1,active: 5.22 µM
18,Nc1nc2n(n1)C(c1ccco1)CC(c1ccc(Cl)cc1)N2 (stereo not drawn),"inconclusive: 0.147 µM [inhibitor, full curve, poor fit]"
19,COc1ccc(C(CNC(=O)c2cccc(S(=O)(=O)Nc3ccc(C)cc3)c2)N2CCCCC2)cc1 (stereo not drawn),active: 9.28 µM
20,COc1ccc(NC(=S)c2ccncc2)cc1,active: 10.4 µM
21,CCOC(=O)CCC(=O)N1CCOCCOCCOCC1,inactive
22,COc1ccc(S(=O)(=O)NCC(=O)NCc2cc(=O)n(C)c(=O)n2C)cc1C,"inconclusive: 0.104 µM [inhibitor, full curve]"
23,Cc1cccc2cc(COC(=O)COc3ccccc3)c(=O)[nH]c12,"inconclusive: 0.928 µM [inhibitor, partial curve, poor fit]"
24,COCCNC(=O)c1cc(-c2ccccc2OC)on1,"inconclusive: 13.1 µM [inhibitor, partial curve]"
25,COCCN1CC(CNC(=O)c2cc(COc3ccccc3SC)on2)CC1=O (stereo not drawn),inactive

# 4 compounds picked at random from those above, as already listed:
row,SMILES,Potency
9,CCn1c(SCC(=O)N(C)CC(=O)Nc2cccc(OC)c2)nnc1-c1ccco1,inactive
15,O=C(CNC(=O)c1ccccc1Cl)c1ccccc1,"inconclusive: 9.28 µM [inhibitor, partial curve, poor fit]"
7,O=C(NC1CC(=O)N(c2ccc(F)cc2)C1)C(=O)c1c[nH]c2ccccc12 (stereo not drawn),inactive
4,CN(CC1COc2ccccc2O1)c1nc(-c2cccnc2)nc2ccccc12 (stereo not drawn),"inconclusive: 10.4 µM [inhibitor, single point]"

# Copied from the list.
# O=C(c1ccco1)N1CCN(C(=O)C2CCN(S(=O)(=O)Cc3ccccc3)CC2)CC1 – Potency: inconclusive: 8.28 µM [inhibitor, partial curve]
# O=C(/C=C/c1ccccc1[N+](=O)[O-])N1CCN(c2ccccc2F)CC1 – Potency: inactive

# Later entries.

row,SMILES,Potency
1,CC(C)(C)C1CCC(N2CCN(c3ccccc3)CC2)CC1 (stereo not drawn),"inconclusive: 18.5 µM [inhibitor, single point]"
2,CC(=O)Oc1ccc(OC(C)=O)c(SCCCCCCl)c1,inactive
3,O=c1oc2cc(OCCO)ccc2c2c1CCCC2,inactive
4,COc1ccc(CCC(=O)N(C)CC(=O)Nc2ccc(N3CCOCC3)cc2)cc1,"inconclusive: 9.28 µM [inhibitor, single point]"
5,C=CCn1c(COc2ccc(Cl)cc2)nnc1SCC(=O)N1CC(=O)Nc2ccccc21,"inconclusive: 11.7 µM [inhibitor, single point]"
6,Cc1ccc(C)c(S(=O)(=O)N2CCN(C(=O)CCCc3c[nH]c4ccccc34)CC2)c1,"inconclusive: 0.0041 µM [inhibitor, full curve, poor fit]"
7,COc1ccc(S(=O)(=O)NCC(=O)N(CC(=O)NCC2CCCO2)c2ccccc2C)cc1 (stereo not drawn),inactive
8,Cn1[nH]c(CSc2ccc(Cl)cc2)cc1=O,inactive
9,COc1ccc(-n2nc3c(c2NC(=O)C2CC(=O)N(c4ccccc4)C2)CS(=O)(=O)C3)cc1 (stereo not drawn),inactive
10,CC1Cc2ccccc2N1C(=O)CSc1ccccc1 (stereo not drawn),"inconclusive: 18.5 µM [inhibitor, single point]"
11,Oc1csc(Cc2nc(-c3ccccc3F)cs2)n1,inactive
12,c1ccc2c(N3CCCCC3)nc(N3CCCC3)nc2c1,active: 4.65 µM
13,Cc1ccc(S(=O)(=O)Nc2cc(=O)[nH]c3c2CCC3)cc1,inactive
14,C=CCOc1ccc(CNn2cn[nH]c2=S)cc1OCC,"inconclusive: 4.15 µM [inhibitor, single point]"
15,Cc1c(NC(=S)N/N=C\c2ccccc2O)c(=O)n(-c2ccccc2)n1C,"inconclusive: 18.5 µM [inhibitor, single point]"
16,CN1CCN(C(CNC(=O)c2ccc(Br)o2)c2ccc(F)cc2)CC1 (stereo not drawn),inactive
17,O=C(N/N=C\c1coc2ccccc2c1=O)c1ccco1,inactive
18,CC(=O)Nc1ccc(S(=O)(=O)/N=C2/NC(=O)/C(=C\c3ccco3)S2)cc1,"inconclusive: 2.62 µM [inhibitor, full curve, poor fit]"
19,CCOc1cc(C(C(=O)NCC2CCCO2)N(C(=O)Cn2nnc3ccccc32)c2ccc(C(C)=O)cc2)ccc1O (stereo not drawn),"inconclusive: 11.7 µM [inhibitor, single point]"
20,CC(c1ccco1)N(C(=O)c1ccccc1NS(=O)(=O)c1cc([N+](=O)[O-])ccc1Cl)c1ccccn1 (stereo not drawn),"inconclusive: 4.15 µM [inhibitor, full curve, poor fit]"
21,COc1ccccc1NS(=O)(=O)c1cc(-c2cnc(C3CC3)o2)ccc1C,"inconclusive: 16.5 µM [inhibitor, single point]"
22,COc1ccc(C(=O)CCNc2cccc(Cl)c2)cc1,"inconclusive: 9.28 µM [inhibitor, partial curve, poor fit]"
23,Cc1ccc(-c2cc(C(F)(F)F)n3ncc(C(=O)N4CCCCC4c4cccnc4)c3n2)cc1 (stereo not drawn),"inconclusive: 0.0415 µM [inhibitor, partial curve, poor fit]"
